The record followed here is the supplement of paper PMC10849652.

The chains behind the UniProt entries cited, without tags or fusion partners. Where a name states a change or a piece, a line headed by the entry shows the natural chain unless it says otherwise.
UniProt Q13546: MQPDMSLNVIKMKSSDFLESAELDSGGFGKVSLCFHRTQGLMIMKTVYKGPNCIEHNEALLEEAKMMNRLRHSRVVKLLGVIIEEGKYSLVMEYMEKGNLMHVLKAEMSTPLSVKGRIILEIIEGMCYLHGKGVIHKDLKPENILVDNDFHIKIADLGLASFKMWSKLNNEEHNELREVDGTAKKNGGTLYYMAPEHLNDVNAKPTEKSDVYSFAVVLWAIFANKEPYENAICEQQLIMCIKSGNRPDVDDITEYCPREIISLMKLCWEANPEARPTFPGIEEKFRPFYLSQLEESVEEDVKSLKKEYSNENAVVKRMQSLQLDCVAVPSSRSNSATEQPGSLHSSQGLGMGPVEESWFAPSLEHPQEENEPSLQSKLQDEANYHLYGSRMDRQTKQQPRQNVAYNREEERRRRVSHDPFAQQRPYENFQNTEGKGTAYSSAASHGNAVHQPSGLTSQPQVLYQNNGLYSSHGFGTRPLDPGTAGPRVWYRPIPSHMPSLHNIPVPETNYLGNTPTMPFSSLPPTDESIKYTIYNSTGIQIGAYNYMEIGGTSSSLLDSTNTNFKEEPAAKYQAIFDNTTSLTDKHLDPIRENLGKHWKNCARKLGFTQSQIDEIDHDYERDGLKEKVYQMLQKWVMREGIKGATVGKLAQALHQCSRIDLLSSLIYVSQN
UniProt O75695: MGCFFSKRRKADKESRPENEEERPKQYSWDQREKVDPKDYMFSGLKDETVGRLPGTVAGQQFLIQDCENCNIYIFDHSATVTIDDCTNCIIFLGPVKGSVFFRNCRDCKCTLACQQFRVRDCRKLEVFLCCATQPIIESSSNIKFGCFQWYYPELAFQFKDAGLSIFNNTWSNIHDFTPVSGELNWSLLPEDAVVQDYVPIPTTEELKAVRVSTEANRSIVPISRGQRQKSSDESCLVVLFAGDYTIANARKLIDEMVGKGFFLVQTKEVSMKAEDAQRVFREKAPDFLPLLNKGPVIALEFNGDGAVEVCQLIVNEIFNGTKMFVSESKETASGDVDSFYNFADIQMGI
UniProt O14730: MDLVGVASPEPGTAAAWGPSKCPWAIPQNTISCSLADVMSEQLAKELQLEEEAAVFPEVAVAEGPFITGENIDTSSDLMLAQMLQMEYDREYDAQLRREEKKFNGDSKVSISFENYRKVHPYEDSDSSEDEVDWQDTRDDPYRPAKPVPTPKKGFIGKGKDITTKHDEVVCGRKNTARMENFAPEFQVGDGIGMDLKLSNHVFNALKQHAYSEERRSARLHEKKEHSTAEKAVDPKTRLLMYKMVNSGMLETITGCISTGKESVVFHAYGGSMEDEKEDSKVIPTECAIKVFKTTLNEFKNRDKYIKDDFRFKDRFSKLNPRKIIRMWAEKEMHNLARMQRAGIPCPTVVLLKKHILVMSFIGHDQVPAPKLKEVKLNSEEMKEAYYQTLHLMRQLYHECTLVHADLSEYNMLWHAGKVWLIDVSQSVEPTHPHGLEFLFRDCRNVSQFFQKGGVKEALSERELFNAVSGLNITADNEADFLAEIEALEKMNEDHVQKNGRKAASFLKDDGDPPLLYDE
UniProt Q9NTX7: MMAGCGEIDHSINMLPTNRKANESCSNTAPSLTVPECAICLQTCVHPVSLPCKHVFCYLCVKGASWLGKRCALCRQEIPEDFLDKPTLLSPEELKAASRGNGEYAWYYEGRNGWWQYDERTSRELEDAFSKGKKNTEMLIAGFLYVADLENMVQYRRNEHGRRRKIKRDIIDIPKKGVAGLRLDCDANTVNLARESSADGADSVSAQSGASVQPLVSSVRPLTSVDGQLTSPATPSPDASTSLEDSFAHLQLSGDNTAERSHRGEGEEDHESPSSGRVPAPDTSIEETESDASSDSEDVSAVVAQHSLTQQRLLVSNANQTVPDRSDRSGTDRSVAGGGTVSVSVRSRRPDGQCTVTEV
UniProt Q9H6T3, whole entry, looked up: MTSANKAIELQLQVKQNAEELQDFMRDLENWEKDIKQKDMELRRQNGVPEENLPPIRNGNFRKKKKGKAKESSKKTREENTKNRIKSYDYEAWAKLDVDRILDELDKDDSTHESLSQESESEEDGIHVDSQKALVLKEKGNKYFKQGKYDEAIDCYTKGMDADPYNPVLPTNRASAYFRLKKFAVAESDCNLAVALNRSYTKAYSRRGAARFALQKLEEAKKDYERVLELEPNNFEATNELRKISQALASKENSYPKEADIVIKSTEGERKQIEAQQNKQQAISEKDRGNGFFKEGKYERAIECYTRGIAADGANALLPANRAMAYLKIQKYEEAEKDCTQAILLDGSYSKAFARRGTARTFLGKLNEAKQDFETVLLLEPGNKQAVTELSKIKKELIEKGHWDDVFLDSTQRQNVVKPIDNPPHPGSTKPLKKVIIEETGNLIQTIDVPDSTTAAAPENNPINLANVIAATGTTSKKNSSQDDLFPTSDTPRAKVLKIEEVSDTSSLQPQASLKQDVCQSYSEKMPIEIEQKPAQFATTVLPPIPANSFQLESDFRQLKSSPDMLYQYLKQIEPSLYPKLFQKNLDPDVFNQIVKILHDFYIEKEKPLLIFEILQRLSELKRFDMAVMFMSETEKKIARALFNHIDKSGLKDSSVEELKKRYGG
UniProt Q9BV68: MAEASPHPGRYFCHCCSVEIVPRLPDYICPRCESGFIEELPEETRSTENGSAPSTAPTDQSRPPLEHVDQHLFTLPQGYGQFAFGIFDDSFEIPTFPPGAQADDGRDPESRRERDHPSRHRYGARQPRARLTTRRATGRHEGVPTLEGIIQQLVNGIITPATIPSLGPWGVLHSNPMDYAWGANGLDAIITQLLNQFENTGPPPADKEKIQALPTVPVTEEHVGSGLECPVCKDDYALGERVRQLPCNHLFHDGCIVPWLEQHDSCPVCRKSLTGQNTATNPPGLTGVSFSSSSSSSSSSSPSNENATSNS
UniProt Q9H7B2: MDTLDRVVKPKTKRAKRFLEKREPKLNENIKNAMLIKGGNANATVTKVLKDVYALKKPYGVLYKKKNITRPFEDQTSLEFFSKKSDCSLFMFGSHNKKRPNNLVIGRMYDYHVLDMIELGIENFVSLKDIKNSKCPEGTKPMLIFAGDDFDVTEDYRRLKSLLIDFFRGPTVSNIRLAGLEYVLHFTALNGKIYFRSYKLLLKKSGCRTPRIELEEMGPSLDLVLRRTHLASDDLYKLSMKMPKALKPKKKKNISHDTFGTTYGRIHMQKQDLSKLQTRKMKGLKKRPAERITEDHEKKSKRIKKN
UniProt Q9NVN3: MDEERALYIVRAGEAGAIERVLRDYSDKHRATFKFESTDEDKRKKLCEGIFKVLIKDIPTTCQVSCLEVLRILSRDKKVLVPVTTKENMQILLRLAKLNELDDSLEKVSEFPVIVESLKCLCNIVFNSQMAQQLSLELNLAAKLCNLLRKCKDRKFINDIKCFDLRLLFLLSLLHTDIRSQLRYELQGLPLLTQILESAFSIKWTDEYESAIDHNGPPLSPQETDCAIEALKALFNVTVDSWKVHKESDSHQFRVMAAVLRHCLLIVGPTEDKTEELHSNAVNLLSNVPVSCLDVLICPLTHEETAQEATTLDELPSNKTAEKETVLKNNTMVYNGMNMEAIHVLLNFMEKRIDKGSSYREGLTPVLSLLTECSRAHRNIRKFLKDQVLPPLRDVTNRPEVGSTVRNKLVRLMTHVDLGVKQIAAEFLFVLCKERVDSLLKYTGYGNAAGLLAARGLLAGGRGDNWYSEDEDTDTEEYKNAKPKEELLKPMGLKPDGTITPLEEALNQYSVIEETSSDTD
UniProt Q8IUF8: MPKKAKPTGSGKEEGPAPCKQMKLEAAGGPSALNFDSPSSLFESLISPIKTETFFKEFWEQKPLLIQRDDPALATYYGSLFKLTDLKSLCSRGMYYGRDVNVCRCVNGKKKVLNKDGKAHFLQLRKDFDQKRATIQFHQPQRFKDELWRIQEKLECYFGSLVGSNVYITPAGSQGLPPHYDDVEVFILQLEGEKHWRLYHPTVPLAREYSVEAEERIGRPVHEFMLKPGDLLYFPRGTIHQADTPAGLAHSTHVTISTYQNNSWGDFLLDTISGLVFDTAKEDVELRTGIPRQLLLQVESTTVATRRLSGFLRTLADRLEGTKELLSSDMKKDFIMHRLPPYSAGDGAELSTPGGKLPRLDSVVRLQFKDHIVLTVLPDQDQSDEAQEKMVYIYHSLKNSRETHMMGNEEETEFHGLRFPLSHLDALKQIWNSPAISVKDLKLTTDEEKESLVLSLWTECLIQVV
UniProt Q5XPI4: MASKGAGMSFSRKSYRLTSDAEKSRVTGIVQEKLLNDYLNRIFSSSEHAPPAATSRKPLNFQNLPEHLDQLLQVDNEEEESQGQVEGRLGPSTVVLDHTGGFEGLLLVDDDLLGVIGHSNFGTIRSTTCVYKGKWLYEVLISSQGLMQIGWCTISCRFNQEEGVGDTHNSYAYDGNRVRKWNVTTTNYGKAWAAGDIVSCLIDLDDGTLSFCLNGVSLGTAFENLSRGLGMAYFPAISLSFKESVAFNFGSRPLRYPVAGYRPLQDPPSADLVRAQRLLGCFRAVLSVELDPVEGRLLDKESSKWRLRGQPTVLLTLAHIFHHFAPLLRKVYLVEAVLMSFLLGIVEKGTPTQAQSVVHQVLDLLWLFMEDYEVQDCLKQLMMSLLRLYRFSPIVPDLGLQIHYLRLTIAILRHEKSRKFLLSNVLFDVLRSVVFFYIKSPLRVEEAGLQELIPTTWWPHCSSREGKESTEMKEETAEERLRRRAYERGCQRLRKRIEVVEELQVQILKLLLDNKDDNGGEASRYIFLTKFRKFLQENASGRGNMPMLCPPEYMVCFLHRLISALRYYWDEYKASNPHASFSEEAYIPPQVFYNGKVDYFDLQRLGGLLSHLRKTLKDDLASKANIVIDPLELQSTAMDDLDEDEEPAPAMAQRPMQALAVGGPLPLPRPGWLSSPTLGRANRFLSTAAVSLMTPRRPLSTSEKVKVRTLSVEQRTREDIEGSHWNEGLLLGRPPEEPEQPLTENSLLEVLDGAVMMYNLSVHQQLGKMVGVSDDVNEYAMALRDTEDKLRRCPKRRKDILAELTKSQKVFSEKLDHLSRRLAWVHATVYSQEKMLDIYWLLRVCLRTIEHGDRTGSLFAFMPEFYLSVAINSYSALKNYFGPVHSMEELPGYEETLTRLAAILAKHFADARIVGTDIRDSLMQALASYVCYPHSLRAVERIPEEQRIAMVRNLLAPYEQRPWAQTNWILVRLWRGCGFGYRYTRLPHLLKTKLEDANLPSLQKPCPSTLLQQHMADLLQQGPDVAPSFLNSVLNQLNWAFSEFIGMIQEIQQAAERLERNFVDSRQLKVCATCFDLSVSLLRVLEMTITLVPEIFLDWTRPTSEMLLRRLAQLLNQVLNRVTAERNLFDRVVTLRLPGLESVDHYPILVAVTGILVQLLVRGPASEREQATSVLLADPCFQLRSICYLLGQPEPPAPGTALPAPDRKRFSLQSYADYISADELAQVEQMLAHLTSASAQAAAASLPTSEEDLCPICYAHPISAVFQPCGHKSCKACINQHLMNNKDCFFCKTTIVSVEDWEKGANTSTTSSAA
UniProt Q9P0P0: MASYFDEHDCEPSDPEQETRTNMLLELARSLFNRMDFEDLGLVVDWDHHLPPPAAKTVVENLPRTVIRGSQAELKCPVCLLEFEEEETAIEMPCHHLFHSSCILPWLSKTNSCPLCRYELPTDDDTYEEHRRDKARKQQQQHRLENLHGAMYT
UniProt Q96DB5: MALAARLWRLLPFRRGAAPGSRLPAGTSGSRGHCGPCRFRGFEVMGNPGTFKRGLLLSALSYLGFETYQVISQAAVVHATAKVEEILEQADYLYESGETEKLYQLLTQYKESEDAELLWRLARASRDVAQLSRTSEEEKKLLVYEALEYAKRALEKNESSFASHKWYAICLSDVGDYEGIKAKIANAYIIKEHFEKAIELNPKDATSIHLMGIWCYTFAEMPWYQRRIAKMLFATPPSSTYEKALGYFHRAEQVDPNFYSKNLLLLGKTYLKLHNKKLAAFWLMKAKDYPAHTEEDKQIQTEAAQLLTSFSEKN
UniProt Q5TBB1: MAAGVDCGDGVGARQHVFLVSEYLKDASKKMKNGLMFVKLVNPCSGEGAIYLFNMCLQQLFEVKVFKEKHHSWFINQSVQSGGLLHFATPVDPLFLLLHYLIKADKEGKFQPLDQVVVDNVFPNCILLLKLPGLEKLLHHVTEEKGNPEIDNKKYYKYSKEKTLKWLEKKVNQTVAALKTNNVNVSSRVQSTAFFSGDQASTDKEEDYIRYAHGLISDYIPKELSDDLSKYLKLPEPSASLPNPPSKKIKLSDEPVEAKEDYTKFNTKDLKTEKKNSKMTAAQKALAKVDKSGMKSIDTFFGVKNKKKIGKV
UniProt O60930: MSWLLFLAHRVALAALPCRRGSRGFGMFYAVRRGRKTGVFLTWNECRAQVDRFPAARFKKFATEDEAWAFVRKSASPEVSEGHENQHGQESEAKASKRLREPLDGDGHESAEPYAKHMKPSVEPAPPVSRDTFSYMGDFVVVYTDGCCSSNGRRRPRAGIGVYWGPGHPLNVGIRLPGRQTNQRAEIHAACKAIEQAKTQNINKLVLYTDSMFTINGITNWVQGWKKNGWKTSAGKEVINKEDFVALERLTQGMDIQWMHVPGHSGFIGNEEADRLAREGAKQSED

This is one part of the list.

Compound in one assay: CN1CC[C@H](c2c(O)cc(O)c3c(=O)cc(-c4ccccc4Cl)oc23)[C@H](O)C1 [alvocidib]
The assay is described as follows: log2 fold change, soluble protein after heating vs DMSO (PISA); higher = thermal stabilisation; K562 lysate, 10 uM; active = over 0.2 and 3.5 SD of the protein, either way, in both replicates (recomputed). In short, it runs like this:
(§1)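 K562 pellets were dounce-homogenised in PBS pH 7.4 with 1 mM MgCl2, and the crude extract at 1 mg/mL protein was treated with 10 μM compound for 30 min. Aliquots were heated for 3 min across 48°C-58°C, pooled, and brought to 0.5% NP-40 at 4°C; soluble protein was the supernatant after 21,000xg for 90 min. Soluble protein was quantified by TMTpro 16plex LC-MS/MS with channel sums equalised, and reported as log2 fold change in thermal stability against DMSO controls, with values from duplicates.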
With RPL36 (UniProt Q9Y3U8), the log2 fold change is inactive: -0.023.

On to RPL29 (UniProt P47914), for which the log2 fold change is inactive: 0.054. Still for that read-out and setting: to RIPK1 (UniProt Q13546) belongs inactive: 0.001; to RP2 (UniProt O75695), inactive: 0.029; to RNF166 (UniProt Q96A37), inactive: -0.079.

In the case of RPL10A (UniProt P62906), the log2 fold change was inactive: 0.01.

For the target RIOK3 (UniProt O14730), the log2 fold change was inactive: -0.04.

Turning to RNF146 (UniProt Q9NTX7), the log2 fold change was inactive: 0.047. On the same count and under the same terms, to ROR2 (UniProt Q01974) belongs inactive: -0.006; to RPL27 (UniProt P61353), inactive: 0.049. Turning to RPAP3 (UniProt Q9H6T3), the log2 fold change was inactive: 0.02. As for RIPK2 (UniProt O43353), the log2 fold change was inactive: 0.061. RPL35 (UniProt P42766): the log2 fold change was inactive: -0.014. Turning to ROCK1 (UniProt Q13464), the log2 fold change is inactive: 0.004. Still for that read-out and setting: for RNF126 (UniProt Q9BV68) the value was inactive: -0.038. With RPL18 (UniProt Q07020), the log2 fold change was inactive: -0.02. With RPL34 (UniProt P49207), the log2 fold change was inactive: -0.005.

As for RPL13A (UniProt P40429), the log2 fold change was inactive: 0.009. Turning to RNF14 (UniProt Q9UBS8), the log2 fold change is inactive: -0.007. For the target RNF168 (UniProt Q8IYW5), the log2 fold change was inactive: 0.037.

On to RPL3 (UniProt P39023), for which the log2 fold change is inactive: 0.06.

As to RPF2 (UniProt Q9H7B2), the log2 fold change was inactive: 0.074. Regarding RMDN3 (UniProt Q96TC7), the log2 fold change was inactive: 0.03. As for RPL14 (UniProt P50914), the log2 fold change was inactive: 0.011. On the same count and under the same terms, for RIC8B isoform 1 (UniProt Q9NVN3) the value was inactive: -0.009. In the case of RPL32 (UniProt P62910), the log2 fold change was inactive: 0.039.

RIOX2 (UniProt Q8IUF8): the log2 fold change is inactive: 0.038. RNF123 (UniProt Q5XPI4): the log2 fold change was inactive: 0.011. As to RPL30 (UniProt P62888), the log2 fold change was inactive: -0.021. Regarding RNASEH2C (UniProt Q8TDP1), the log2 fold change is inactive: -0.074.

On to RNF181 (UniProt Q9P0P0), for which the log2 fold change is inactive: 0. On the same count and under the same terms, for RMDN1 (UniProt Q96DB5) the value was inactive: 0.025; for RHOT2 (UniProt Q8IXI1), inactive: 0.024; for RNASEH2B (UniProt Q5TBB1), inactive: 0.05. RPA3 (UniProt P35244): the log2 fold change is inactive: 0.009. For the target RMC1 (UniProt Q96DM3), the log2 fold change was inactive: -0.041. Turning to RNF213, A0A0A0MTC1, the log2 fold change was inactive: -0.003.

For RNASEH1 (UniProt O60930), the log2 fold change is inactive: 0.024.

Compound in a further assay: CN1CCc2c(c3ccccc3n2Cc2ccc(C(=O)NO)cc2)C1 [Tubastatin A]
The assay is described as above. In short, it runs like this: as §1
Consider RPL36 (UniProt Q9Y3U8), for which the log2 fold change was inactive: 0.002. The same measure, in the same setting: for RPL29 (UniProt P47914) the value was inactive: 0.052; for RIPK1 (UniProt Q13546), inactive: -0.108; for RP2 (UniProt O75695), inactive: 0.042. Regarding RNF166 (UniProt Q96A37), the log2 fold change was inactive: 0.2. With RPL10A (UniProt P62906), the log2 fold change is inactive: 0.035. On to RIOK3 (UniProt O14730), for which the log2 fold change is active: -0.273. Regarding RNF146 (UniProt Q9NTX7), the log2 fold change is inactive: -0.005.

Consider ROR2 (UniProt Q01974), for which the log2 fold change was inactive: -0.018. For RPL27 (UniProt P61353), the log2 fold change was inactive: 0.009. Still for that read-out and setting: for RPAP3 (UniProt Q9H6T3) the value was inactive: -0.046; for RIPK2 (UniProt O43353), inactive: -0.025.

On to RPL35 (UniProt P42766), for which the log2 fold change is inactive: 0.065.

On to ROCK1 (UniProt Q13464), for which the log2 fold change was inactive: 0.013. In the case of RNF126 (UniProt Q9BV68), the log2 fold change was inactive: 0.04. Take RPL18 (UniProt Q07020): the log2 fold change was inactive: 0.026. As to RPL34 (UniProt P49207), the log2 fold change is inactive: -0.007. In the case of RPL13A (UniProt P40429), the log2 fold change was inactive: 0.018. For RNF14 (UniProt Q9UBS8), the log2 fold change was inactive: 0.014.

Take RNF168 (UniProt Q8IYW5): the log2 fold change was inactive: -0.03. The same measure, in the same setting: to RPL3 (UniProt P39023) belongs inactive: -0.016; to RPF2 (UniProt Q9H7B2), inactive: -0.094; to RMDN3 (UniProt Q96TC7), inactive: -0.031. As for RPL14 (UniProt P50914), the log2 fold change was inactive: -0.045. As to RIC8B isoform 1 (UniProt Q9NVN3), the log2 fold change was inactive: -0.106. Consider RPL32 (UniProt P62910), for which the log2 fold change is inactive: -0.037. For RIOX2 (UniProt Q8IUF8), the log2 fold change was inactive: -0.002. In the case of RNF123 (UniProt Q5XPI4), the log2 fold change is inactive: -0.047. RPL30 (UniProt P62888): the log2 fold change was inactive: 0.028. On the same count and under the same terms, to RNASEH2C (UniProt Q8TDP1) belongs inactive: -0.052; to RNF181 (UniProt Q9P0P0), inactive: 0.021. As for RMDN1 (UniProt Q96DB5), the log2 fold change is inactive: 0.014. Regarding RHOT2 (UniProt Q8IXI1), the log2 fold change is inactive: 0.016. Same read-out and setting: to RNASEH2B (UniProt Q5TBB1) belongs inactive: -0.046; to RPA3 (UniProt P35244), inactive: 0.017. RMC1 (UniProt Q96DM3): the log2 fold change is inactive: -0.019. On the same count and under the same terms, to RNF213, A0A0A0MTC1 belongs inactive: -0.081.
